Data as given in PubChem BioAssay AID743121 (NCATS, 2013)

- Aim: 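Partners whose loss is lethal together with topoisomerase I blockade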 (primary screen)
- System: MDA-MB-231 cells, a human breast cancer line
- Reagent: single siRNA against human genes, 20 nM siRNA (0.8 pmol per well)
- Timing: 120 h (drug added 48 h after transfection, read 72 h later)
- Conditions: camptothecin 20 nM (about EC30) for 72 h; vehicle 0.1% DMSO in parallel plates
- Detection: 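Cell viability by ATP luminescence (CellTiter-Glo) as % of non-targeting siRNA wells, and the log2 ratio of viability without drug over viability with camptothecin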
- Direction: log2 vehicle/camptothecin viability: higher = stronger sensitisation to camptothecin; viability with camptothecin: higher = more viable cells
- Units: viability with camptothecin in % of control
- Hit rule: 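Each gene scored by redundant siRNA activity (RSA) over its individual siRNA ratios; a gene is called active at p < 0.001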
This is an unselected part of about 26,000 deposited reagents. 167 of all reagents (0.63%) were called active. 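Calls are per gene from RSA p-values that are not deposited; an individual active-marked siRNA can sensitise only weakly.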 Further read-outs or replicates are left out here.

SDHA [SID164387482]
- log2 vehicle/camptothecin viability: -0.294
- viability with camptothecin: 73
- Call: inactive

SDHA [SID164387484]
- log2 vehicle/camptothecin viability: -0.174
- viability with camptothecin: 64.4
- Call: inactive

SDHA [SID164387485]
- log2 vehicle/camptothecin viability: -0.163
- viability with camptothecin: 58.9
- Call: inactive

SDHA [SID164387486]
- log2 vehicle/camptothecin viability: -0.112
- viability with camptothecin: 84.8
- Call: inactive

EBP [SID164412825]
- log2 vehicle/camptothecin viability: -0.396
- viability with camptothecin: 75.7
- Call: inactive

EBP [SID164412826]
- log2 vehicle/camptothecin viability: -0.478
- viability with camptothecin: 62.9
- Call: inactive

EBP [SID164412827]
- log2 vehicle/camptothecin viability: -0.454
- viability with camptothecin: 51.6
- Call: inactive

EBP [SID164412831]
- log2 vehicle/camptothecin viability: -0.511
- viability with camptothecin: 91.3
- Call: inactive

PRSS3 [SID164383056]
- log2 vehicle/camptothecin viability: 0.146
- viability with camptothecin: 23.6
- Call: inactive

PRSS3 [SID164383060]
- log2 vehicle/camptothecin viability: 0.0406
- viability with camptothecin: 29.4
- Call: inactive

PRSS3 [SID164383062]
- log2 vehicle/camptothecin viability: 0.151
- viability with camptothecin: 39.2
- Call: inactive

FANCG [SID164364301]
- log2 vehicle/camptothecin viability: -0.00495
- viability with camptothecin: 51.2
- Call: inactive

FANCG [SID164364302]
- log2 vehicle/camptothecin viability: -0.688
- viability with camptothecin: 16.1
- Call: inactive

FANCG [SID164364304]
- log2 vehicle/camptothecin viability: 0.494
- viability with camptothecin: 58.1
- Call: inactive

GNG7 [SID164367000]
- log2 vehicle/camptothecin viability: -0.168
- viability with camptothecin: 105
- Call: inactive

GNG7 [SID164367001]
- log2 vehicle/camptothecin viability: -0.107
- viability with camptothecin: 103
- Call: inactive

GNG7 [SID164367002]
- log2 vehicle/camptothecin viability: 0.322
- viability with camptothecin: 44.1
- Call: inactive

GNG7 [SID164367003]
- log2 vehicle/camptothecin viability: -0.0404
- viability with camptothecin: 113
- Call: inactive

Taken from above.
For “viability with camptothecin”, SDHA [SID164387482] has 73
FANCG [SID164364302], Call → inactive
Under “Call”, EBP [SID164412826] shows inactive
Value for EBP [SID164412831] under “log2 vehicle/camptothecin viability”: -0.511

The listing continues:
EFNA2 [SID164362762]
- log2 vehicle/camptothecin viability: -0.163
- viability with camptothecin: 43.6
- Call: inactive

EFNA2 [SID164362765]
- log2 vehicle/camptothecin viability: -0.191
- viability with camptothecin: 98.9
- Call: inactive

EFNA2 [SID164362766]
- log2 vehicle/camptothecin viability: -0.209
- viability with camptothecin: 99.8
- Call: inactive

FZD2 [SID164365584]
- log2 vehicle/camptothecin viability: 0.046
- viability with camptothecin: 23.1
- Call: inactive

FZD2 [SID164365587]
- log2 vehicle/camptothecin viability: 0.596
- viability with camptothecin: 39.4
- Call: inactive

FZD2 [SID164365588]
- log2 vehicle/camptothecin viability: -0.535
- viability with camptothecin: 93.8
- Call: inactive

FZD2 [SID164365589]
- log2 vehicle/camptothecin viability: -0.085
- viability with camptothecin: 42.1
- Call: inactive

TRIM61 [SID164680090]
- log2 vehicle/camptothecin viability: -0.32
- viability with camptothecin: 78.8
- Call: inactive

TRIM61 [SID164680091]
- log2 vehicle/camptothecin viability: 0.0779
- viability with camptothecin: 52.5
- Call: inactive

TRIM61 [SID164680092]
- log2 vehicle/camptothecin viability: -0.105
- viability with camptothecin: 67.3
- Call: inactive

SLC7A2 [SID164388440]
- log2 vehicle/camptothecin viability: -0.0591
- viability with camptothecin: 79.7
- Call: inactive

SLC7A2 [SID164388442]
- log2 vehicle/camptothecin viability: -0.126
- viability with camptothecin: 85.8
- Call: inactive

SLC7A2 [SID164388443]
- log2 vehicle/camptothecin viability: 0.428
- viability with camptothecin: 28.2
- Call: inactive

SLC7A2 [SID164388445]
- log2 vehicle/camptothecin viability: -0.417
- viability with camptothecin: 61.1
- Call: inactive

MMEL1 [SID164531371]
- log2 vehicle/camptothecin viability: 0.112
- viability with camptothecin: 82.2
- Call: inactive

MMEL1 [SID164531373]
- log2 vehicle/camptothecin viability: -0.395
- viability with camptothecin: 34
- Call: inactive

MMEL1 [SID164531374]
- log2 vehicle/camptothecin viability: -0.154
- viability with camptothecin: 63.2
- Call: inactive

MMEL1 [SID164531375]
- log2 vehicle/camptothecin viability: -0.0434
- viability with camptothecin: 29.8
- Call: inactive
